The values below come from PMC8392785.

This test addresses Erwinia chrysanthemi 3937 pectin methylesterase (Erwinia chrysanthemi 3937) (UniProt P0C1A9). The test can be described thus: SEC; 24 mL Superdex75 HR10/30; [PemA] = 50 µM (1.85 mg/mL); check of size homogeneity of the purified enzyme; both purified. For orientation: Size exclusion chromatography separates by hydrodynamic size, large species first.

These are yes or no findings as the source states them, for the method shown.

B1: Erwinia chrysanthemi 3937 pectin methylesterase (enzyme, UniProt P0C1A9 25-366)
chain: ATTYNAVVSKSSSDGKTFKTIADAIASAPAGSTPFVILIKNGVYNERLTITRNNLHLKGESRNGAVIAAATAAGTLKSDGSKWGTAGSSTITISAKDFSAQSLTIRNDFDFPANQAKSDSDSSKIKDTQAVALYVTKSGDRAYFKDVSLVGYQDTLYVSGGRSFFSDCRISGTVDFIFGDGTALFNNCDLVSRYRADVKSGNVSGYLTAPSTNINQKYGLVITNSRVIRESDSVPAKSYGLGRPWHPTTTFSDGRYADPNAIGQTVFLNTSMDNHIYGWDKMSGKDKNGNTIWFNPEDSRFFEYKSYGAGATVSKDRRQLTDAQAAEYTQSKVLGDWTPTLP
For the molecule B1, the binding result is recorded as “no binding (tested: 50 µM)”.
